# In the supplement of paper PMC7666118:
# Amino acid sequences for entries named in this document (tags omitted). A change or cut given only in a name is not applied to a line headed by its entry.
# UniProt Q14376: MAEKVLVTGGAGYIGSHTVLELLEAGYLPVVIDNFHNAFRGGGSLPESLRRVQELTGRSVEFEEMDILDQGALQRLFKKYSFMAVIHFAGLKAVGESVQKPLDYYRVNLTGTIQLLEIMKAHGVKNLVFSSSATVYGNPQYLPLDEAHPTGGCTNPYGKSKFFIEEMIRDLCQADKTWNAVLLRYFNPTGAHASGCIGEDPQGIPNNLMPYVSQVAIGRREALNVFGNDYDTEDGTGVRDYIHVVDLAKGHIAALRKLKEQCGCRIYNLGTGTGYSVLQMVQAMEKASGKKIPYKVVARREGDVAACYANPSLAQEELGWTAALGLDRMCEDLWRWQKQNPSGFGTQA
# UniProt Q01844: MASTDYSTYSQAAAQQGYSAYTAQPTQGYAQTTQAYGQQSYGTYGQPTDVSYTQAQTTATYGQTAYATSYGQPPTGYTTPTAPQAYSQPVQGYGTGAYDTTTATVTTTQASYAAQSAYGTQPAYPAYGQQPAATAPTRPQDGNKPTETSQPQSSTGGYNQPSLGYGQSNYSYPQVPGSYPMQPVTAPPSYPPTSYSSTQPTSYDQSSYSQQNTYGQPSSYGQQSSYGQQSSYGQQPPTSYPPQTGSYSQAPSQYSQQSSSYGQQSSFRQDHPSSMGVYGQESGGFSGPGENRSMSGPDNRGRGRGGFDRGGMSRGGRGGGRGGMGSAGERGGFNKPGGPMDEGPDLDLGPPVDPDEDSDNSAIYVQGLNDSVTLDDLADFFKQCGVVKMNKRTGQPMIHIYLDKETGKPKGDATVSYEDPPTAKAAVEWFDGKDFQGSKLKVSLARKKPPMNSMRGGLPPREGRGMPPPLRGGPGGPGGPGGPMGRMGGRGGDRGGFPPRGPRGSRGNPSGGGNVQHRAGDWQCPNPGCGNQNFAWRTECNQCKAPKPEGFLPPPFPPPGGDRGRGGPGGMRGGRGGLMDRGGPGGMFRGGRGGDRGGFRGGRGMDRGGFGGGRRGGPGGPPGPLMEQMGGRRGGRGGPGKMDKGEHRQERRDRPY
# UniProt Q05932: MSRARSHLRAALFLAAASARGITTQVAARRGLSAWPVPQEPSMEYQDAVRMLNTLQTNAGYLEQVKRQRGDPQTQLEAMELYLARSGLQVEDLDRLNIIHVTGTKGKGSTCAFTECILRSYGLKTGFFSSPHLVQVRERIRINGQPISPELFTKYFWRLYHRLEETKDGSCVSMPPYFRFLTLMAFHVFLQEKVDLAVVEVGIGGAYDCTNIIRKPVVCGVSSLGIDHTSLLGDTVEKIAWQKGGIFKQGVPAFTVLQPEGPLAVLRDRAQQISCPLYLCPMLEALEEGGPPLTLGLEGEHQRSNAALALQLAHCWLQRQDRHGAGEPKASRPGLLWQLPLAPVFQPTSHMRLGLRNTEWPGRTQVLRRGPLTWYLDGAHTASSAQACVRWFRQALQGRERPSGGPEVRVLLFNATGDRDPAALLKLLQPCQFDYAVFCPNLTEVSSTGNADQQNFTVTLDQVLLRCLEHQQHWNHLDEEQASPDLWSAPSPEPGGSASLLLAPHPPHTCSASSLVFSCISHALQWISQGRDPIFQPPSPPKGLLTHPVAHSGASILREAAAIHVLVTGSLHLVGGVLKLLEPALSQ
# UniProt Q96G04: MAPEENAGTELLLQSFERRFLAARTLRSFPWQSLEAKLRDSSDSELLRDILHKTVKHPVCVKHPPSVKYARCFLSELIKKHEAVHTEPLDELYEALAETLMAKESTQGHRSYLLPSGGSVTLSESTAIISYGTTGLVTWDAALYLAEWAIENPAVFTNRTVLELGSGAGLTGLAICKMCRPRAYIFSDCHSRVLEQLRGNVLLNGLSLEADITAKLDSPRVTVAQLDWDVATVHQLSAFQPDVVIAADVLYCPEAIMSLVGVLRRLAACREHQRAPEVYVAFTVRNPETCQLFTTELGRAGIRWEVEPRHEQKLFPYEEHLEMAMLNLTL
# UniProt P0C2W1: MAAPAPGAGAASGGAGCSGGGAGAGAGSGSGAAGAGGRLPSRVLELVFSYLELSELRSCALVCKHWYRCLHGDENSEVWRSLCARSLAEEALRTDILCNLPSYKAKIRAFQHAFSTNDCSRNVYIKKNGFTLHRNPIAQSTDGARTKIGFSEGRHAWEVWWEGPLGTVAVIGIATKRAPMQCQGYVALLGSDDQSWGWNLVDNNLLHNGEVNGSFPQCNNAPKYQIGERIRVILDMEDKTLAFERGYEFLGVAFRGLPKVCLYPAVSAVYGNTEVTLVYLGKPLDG
# UniProt Q9Y3D0: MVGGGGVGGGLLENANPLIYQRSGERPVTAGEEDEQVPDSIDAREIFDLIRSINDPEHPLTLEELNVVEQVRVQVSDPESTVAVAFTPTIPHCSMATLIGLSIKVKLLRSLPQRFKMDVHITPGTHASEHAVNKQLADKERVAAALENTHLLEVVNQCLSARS
# UniProt Q86YP4: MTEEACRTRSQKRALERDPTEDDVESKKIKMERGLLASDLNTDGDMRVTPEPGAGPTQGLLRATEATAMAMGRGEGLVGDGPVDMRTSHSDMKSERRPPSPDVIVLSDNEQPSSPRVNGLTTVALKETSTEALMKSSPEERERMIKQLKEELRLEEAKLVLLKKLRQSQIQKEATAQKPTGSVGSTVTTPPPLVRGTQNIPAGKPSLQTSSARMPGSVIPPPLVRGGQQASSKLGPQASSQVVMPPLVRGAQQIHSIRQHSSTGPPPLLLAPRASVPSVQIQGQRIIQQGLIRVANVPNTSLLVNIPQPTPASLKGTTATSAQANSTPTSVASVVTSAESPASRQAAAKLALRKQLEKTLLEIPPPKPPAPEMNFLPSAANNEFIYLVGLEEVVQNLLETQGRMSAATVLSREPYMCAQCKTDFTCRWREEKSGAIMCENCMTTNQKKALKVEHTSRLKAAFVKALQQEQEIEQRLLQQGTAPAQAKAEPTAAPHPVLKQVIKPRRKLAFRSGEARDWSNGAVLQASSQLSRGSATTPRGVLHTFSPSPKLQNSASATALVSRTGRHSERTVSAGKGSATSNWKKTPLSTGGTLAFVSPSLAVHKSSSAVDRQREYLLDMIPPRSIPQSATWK
# UniProt Q53R41: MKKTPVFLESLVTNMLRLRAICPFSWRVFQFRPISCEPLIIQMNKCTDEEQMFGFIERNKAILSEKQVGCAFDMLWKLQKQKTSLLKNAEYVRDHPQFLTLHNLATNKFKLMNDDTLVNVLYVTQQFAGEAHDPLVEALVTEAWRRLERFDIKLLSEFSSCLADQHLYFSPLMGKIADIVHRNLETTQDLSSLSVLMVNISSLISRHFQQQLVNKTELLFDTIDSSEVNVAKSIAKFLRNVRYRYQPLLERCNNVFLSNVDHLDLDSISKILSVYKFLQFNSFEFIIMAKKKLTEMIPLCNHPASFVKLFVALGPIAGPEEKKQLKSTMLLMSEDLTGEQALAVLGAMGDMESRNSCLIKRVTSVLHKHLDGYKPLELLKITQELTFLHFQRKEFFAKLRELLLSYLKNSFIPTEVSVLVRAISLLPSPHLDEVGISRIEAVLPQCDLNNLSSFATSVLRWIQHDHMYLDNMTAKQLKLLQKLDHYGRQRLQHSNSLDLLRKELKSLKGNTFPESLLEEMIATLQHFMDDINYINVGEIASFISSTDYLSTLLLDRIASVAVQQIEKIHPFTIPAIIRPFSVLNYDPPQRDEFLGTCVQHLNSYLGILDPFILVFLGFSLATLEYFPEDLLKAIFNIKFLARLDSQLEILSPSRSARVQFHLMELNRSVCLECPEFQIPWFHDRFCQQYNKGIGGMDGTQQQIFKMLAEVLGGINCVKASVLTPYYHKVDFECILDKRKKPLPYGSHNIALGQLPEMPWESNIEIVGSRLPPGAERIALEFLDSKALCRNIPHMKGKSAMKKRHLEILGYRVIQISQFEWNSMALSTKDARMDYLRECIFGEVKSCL
# UniProt Q7L8L6: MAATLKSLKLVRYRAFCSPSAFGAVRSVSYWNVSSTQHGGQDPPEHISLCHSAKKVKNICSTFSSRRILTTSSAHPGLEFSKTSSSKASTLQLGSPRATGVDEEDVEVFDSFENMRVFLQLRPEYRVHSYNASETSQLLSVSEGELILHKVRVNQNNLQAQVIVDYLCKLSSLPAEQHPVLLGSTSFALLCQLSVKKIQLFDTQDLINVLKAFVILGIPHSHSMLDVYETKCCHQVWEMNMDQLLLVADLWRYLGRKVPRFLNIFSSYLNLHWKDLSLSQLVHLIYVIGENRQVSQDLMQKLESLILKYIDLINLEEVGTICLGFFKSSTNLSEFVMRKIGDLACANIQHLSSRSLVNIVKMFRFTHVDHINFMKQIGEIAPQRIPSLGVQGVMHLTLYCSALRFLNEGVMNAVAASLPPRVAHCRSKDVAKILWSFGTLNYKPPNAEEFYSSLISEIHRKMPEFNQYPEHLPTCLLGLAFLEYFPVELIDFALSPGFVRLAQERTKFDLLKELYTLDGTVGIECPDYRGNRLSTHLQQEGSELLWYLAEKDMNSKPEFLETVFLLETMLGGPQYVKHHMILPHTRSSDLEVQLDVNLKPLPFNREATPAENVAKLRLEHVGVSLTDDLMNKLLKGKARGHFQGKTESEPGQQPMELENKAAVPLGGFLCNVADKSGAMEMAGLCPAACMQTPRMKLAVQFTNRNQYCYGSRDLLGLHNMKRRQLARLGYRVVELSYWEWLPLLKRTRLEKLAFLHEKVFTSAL
# UniProt Q6ICB0: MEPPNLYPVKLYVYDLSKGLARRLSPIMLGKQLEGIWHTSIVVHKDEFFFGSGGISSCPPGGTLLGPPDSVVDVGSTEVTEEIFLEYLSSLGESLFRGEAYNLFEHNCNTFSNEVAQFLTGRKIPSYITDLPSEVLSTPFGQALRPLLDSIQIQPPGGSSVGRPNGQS
# UniProt Q93063: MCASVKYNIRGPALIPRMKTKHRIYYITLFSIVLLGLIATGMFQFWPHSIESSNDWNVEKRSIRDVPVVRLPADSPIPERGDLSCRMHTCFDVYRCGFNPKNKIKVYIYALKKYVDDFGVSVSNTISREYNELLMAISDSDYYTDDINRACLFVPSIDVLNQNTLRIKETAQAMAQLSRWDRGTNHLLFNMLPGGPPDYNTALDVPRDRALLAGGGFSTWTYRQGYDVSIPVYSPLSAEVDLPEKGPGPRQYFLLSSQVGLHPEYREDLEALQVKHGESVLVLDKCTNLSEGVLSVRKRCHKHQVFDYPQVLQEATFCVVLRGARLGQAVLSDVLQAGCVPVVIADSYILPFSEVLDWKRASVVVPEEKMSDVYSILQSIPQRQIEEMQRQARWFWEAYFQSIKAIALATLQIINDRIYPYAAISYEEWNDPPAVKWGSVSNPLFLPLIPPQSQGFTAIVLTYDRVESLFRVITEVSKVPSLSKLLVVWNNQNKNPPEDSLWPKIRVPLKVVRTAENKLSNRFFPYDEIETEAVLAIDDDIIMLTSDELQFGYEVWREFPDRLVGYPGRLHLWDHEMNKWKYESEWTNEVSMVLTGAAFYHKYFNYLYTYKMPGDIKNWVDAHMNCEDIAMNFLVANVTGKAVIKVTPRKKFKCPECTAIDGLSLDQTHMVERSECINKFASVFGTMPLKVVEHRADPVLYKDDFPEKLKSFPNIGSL
# UniProt Q7Z309: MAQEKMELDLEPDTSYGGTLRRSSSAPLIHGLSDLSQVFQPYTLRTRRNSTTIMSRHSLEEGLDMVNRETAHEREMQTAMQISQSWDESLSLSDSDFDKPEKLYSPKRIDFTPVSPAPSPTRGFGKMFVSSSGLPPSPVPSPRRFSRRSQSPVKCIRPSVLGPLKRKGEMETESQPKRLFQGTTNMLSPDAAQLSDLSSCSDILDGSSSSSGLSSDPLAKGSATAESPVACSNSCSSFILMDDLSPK
# UniProt Q8TAG9: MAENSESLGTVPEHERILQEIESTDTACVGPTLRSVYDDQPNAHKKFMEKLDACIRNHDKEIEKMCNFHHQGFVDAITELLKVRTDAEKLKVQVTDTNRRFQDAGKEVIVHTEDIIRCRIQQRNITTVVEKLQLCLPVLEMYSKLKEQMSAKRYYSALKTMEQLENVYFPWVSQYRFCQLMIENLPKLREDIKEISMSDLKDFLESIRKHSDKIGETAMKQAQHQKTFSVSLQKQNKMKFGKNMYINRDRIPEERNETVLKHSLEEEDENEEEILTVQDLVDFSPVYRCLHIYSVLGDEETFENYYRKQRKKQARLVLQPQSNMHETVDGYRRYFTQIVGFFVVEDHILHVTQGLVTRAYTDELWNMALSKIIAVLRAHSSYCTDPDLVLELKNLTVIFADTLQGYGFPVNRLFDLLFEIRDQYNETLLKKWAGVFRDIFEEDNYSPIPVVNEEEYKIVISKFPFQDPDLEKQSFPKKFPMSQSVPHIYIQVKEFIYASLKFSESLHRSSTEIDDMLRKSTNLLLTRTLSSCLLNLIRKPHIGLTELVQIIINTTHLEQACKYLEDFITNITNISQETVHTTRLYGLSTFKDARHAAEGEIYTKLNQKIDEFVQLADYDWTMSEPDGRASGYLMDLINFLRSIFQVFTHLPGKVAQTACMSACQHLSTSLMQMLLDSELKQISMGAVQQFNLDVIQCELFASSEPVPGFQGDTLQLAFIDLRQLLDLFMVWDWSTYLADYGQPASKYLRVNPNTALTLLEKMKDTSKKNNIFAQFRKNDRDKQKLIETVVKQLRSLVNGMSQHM
# This is one part of the list.
# Compound: COc1ccc(Cn2ccc3ccc(C(=O)NO)cc32)cc1
# Test: dose-dependent thermal stabilisation call (2D-TPP, DLPTP, 10% FDR) (binary (1 = stabilised)); higher = stabilised by the compound
# Conditions: system: HL-60 intact cells; concentration range 0.04-10 µM
row,Target,dose-dependent thermal stabilisation call
1,EXOSC9 (UniProt Q06265),inactive: 0
2,ETFB (UniProt P38117),inactive: 0
3,FLJ11506,inactive: 0
4,FOXK1 (UniProt P85037),inactive: 0
5,EZR (UniProt P15311),inactive: 0
6,FAU (UniProt P62861),inactive: 0
7,GALE (UniProt Q14376),inactive: 0
8,EWSR1 (UniProt Q01844),inactive: 0
9,FPGS (UniProt Q05932),inactive: 0
10,FBXO33 (UniProt Q7Z6M2),inactive: 0
11,FLJ43093,inactive: 0
12,GBP2 (UniProt P32456),inactive: 0
13,FEN1 (UniProt P39748),inactive: 0
14,ETF1 (UniProt P62495),inactive: 0
15,FAM86A (UniProt Q96G04),inactive: 0
16,FGFR1OP (UniProt O95684),inactive: 0
17,FECH (UniProt P22830),inactive: 0
18,FLJ22167,inactive: 0
19,GALNT7 (UniProt Q86SF2),inactive: 0

row,Target,dose-dependent thermal stabilisation call
1,FBXO45 (UniProt P0C2W1),inactive: 0
2,GALNT3 (UniProt Q14435),inactive: 0
3,FLG (UniProt P20930),inactive: 0
4,FAM96B (UniProt Q9Y3D0),inactive: 0
5,GATAD2A (UniProt Q86YP4),inactive: 0
6,FASTKD1 (UniProt Q53R41),inactive: 0
7,FASTKD5 (UniProt Q7L8L6),inactive: 0
8,FAT1 (UniProt Q14517),inactive: 0
9,FBXO9 (UniProt Q9UK97),inactive: 0
10,FAM152B (UniProt Q6ICB0),inactive: 0
11,EXT2 (UniProt Q93063),inactive: 0
12,FAM122B (UniProt Q7Z309),inactive: 0
13,EXOC6 (UniProt Q8TAG9),inactive: 0
14,FXR1 (UniProt P51114),inactive: 0
15,FBXL18 (UniProt Q96ME1),inactive: 0
16,FRG1 (UniProt Q14331),inactive: 0
17,GABARAP (UniProt O95166),inactive: 0
18,FKSG24 (UniProt Q567V2),inactive: 0
